Common to all, as to assay: EMSA
In data set [1] the target is apo-RirA (Rhizobium leguminosarum strain 8401 (pRL1JI)) (UniProt Q9AE46). The note with it: no cluster (apo); EMSA: 10 mM Tris, 60 mM KCl, pH 7.52, on ice; 7.5% polyacrylamide gel in 1x TBE; recombinant protein; residues 1-160; label: 5'-FAM (FAM-modified primers). Background: Mobility shift assays separate free from complexed probe on a gel.
For data set [2], the target named is T1, [4Fe-4S] RirA (Rhizobium leguminosarum strain 8401 (pRL1JI)) (UniProt Q9AE46).
T1 sequence (looked up): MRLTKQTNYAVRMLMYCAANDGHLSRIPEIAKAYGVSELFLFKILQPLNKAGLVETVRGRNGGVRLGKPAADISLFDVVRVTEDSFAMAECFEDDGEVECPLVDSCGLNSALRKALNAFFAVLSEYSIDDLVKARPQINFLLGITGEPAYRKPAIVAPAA
The note with it: [4Fe-4S] cluster; EMSA: 10 mM Tris, 60 mM KCl, pH 7.52, on ice; 7.5% polyacrylamide gel in 1x TBE; recombinant protein; residues 1-160; label: 5'-FAM (FAM-modified primers).

Data set [3] concerns the target T2, [2Fe-2S] RirA (Rhizobium leguminosarum strain 8401 (pRL1JI)) (UniProt Q9AE46).
T2 sequence (looked up): T1 sequence (looked up)
As to conditions: [2Fe-2S] cluster; EMSA: 10 mM Tris, 60 mM KCl, pH 7.52, on ice; 7.5% polyacrylamide gel in 1x TBE; recombinant protein; residues 1-160; label: 5'-FAM (FAM-modified primers).

For part of these data: For at least one entry, the source does not settle the construct or the ends of the probe. For part of these data: Where a protein sequence is shown, tags need not be part of it.

The text below walks through data of article PMC5863699, “Sensing iron availability via the fragile [4Fe–4S] cluster of the bacterial transcriptional repressor RirA† †Electronic supplementary information (ESI) available. See DOI: 10.1039/c7sc02801f” (Chemical Science, 2017).

Usually Kd stands for the concentration at which binding is half-saturated.

Consider “CGCAGCCATCGAGGGGGCCCCAGCTGGTCCCGCGGGCTGCCAGGACATCGGCATCTATGACCGGACGATCCGGGCTTACCGAGCGACAGGTCTCTTCCCGTAATTGCCGGCGACTCTAATGGGAGTGGCAGTTGCTCAAGTGAGGGCGATGGTCTTTTGCGCAAGTCCGCCGGCCGACCTATCCGGCGAGCCACTTCAGCGGCATCTGCAGTCGAAATACCCCTCCTACTCAGTCAGGTGATACTCTGGCGCGGGCGTGGTTCAAAATCAGCAGCAAATACGGGATCGTCGGGTCCATCCCCGTCAAGACCGGCAGGTTGGCCATCGTCTCGGTGCGCGCTTGGTCTCGCGCGCGGCAGAACTGCCTCTGTTTGGCAGCCCCACAGAACGTTACGAGGCCTCGATTCTACGTGCAACCTGTTCGGGAGTGTTGAAGGCGTGGATTTATCGATTTAAAGGTGACTAAAATAATCATCTTATGTTGACAAGGCCAATTTCGCTCCATAGGTTCCGCCCGCATCCGTGGCGTAGGGACCAAACAATGGCACGTGTTTTTTTGAATGTTTCTAATAATGTATCGCG (double strand) [fhuA promoter fragment (IRO box operator)]”, for which the Kd in data set [1] was greater than 5500 nM; in data set [2], 172 nM; in data set [3] it was 482 nM.
